Laboratory results: PubChem BioAssay AID493014 (National Center for Advancing Translational Sciences (NCATS), 2011)
This is one part of the list. The main result of the screen is listed elsewhere. These columns were measured beside it and carry no call. Compounds called inactive in the main read-out are mostly missing here. Potencies come from curve fits of mixed quality, noted in brackets.

Assay: qHTS Assay to Find Inhibitors of Chronic Active B-Cell Receptor Signaling
Conditions: ABC-DLBCL IkBa-CBG/CBR reporter, luminescence ratio (green luciferase fused to IkBa over red control in TMD8 lymphoma cells), 4 h
Procedure, shortened: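 Doxycycline induced both beetle luciferases in TMD8 lymphoma cells; IKK-driven degradation limits the IkappaBalpha-fused green signal, while red luminescence normalises for cell number and nonspecific effects. Compounds tested up to 46 uM, 4 hrs.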

[1] = measured here: CBR red luminescence, cell number
[2] = measured here: IkBa-CBG green luminescence

Compound | AC50 [1] | AC50 [2]
C(=N\Nc1nc2ccccc2[nH]1)/c1cccc2cccnc12 | 22.4 µM [falling, partial curve, poor fit] | –
COc1ccc(/C=N\NC(=O)c2cc3c(ccc4ccccc43)o2)cc1O | 8.91 µM [falling, partial curve] | –
NC(=O)c1cc(Cl)ccc1OCC(=O)Nc1ccc2c(c1)OCO2 | 3.26 µM [rising, single point] | –
CN(C(=O)Cn1cnc2sccc2c1=O)C1CCCCC1 | 29.1 µM [rising, single point] | –
N#CC(=C1CCCC1)c1nc(-c2ccc(Cl)cc2)cs1 | 2.82 µM [rising, partial curve, poor fit] | –
O=C(Nc1cccc(S(=O)(=O)N2CCOCC2)c1)c1cn(-c2ccccc2)nc1-c1ccccc1 | 6.51 µM [rising, single point] | –
Cc1ccc(/C=N/NC(=O)CSc2nc3ccccc3o2)cc1 | 0.082 µM [rising, full curve, poor fit] | –
CCc1ccc(NC(=O)CSc2nnc(COc3ccc4c(c3)CCCC4)o2)cc1 | 20.6 µM [rising, partial curve] | –
CCOC(=O)c1nn(-c2ccc(F)cc2)c(C)c1C(C)=O | 0.731 µM [falling, partial curve, poor fit] | –
C=CC[n+]1c(-c2ccc(Cl)cc2Cl)csc1Nc1c(C)n(C)n(-c2ccccc2)c1=O | 35.5 µM [falling, single point] | –
Cc1c(/C=N/NC(N)=O)c2ccccn2c1C(=O)c1ccncc1 | 3.16 µM [rising, partial curve, poor fit] | –
CC(=O)NC12CC3CC(CC(CC(=O)O)(C3)C1)C2 | 0.092 µM [rising, full curve, poor fit] | –
CCCc1ccccc1OCCNC(C)=O | 2.59 µM [rising, partial curve] | –
CCCCOc1ccc(-c2n[nH]c(=S)n2Cc2ccccc2)cc1 | 17.8 µM [rising, partial curve, poor fit] | –
COc1cccc(C(=O)NCC(=O)OCC(=O)NC2CCCCC2)c1 | 29.1 µM [rising, single point] | –
COc1cccc2c(C)c(C(=O)O)[nH]c12 | – | 23.1 µM [rising, partial curve, poor fit]
CCOC(=O)c1ccc(NC(=O)COc2ccccc2CNCCO)cc1 | 22.4 µM [falling, single point] | –
CCC(=O)Nc1nc2c(c(=O)[nH]1)CCCC2 | 28.2 µM [falling, single point] | –
S=C(NCc1ccc(Cl)c(Cl)c1)Nc1ccc2c(c1)OCO2 | 20.6 µM [falling, single point] | –
Cc1ccc(OCc2nc(C#N)c(NCc3ccc4c(c3)OCO4)o2)cc1 | 35.5 µM [falling, single point] | –
CC(C(=O)Nc1ccc(O)cc1C(=O)O)N1C(=O)/C(=C\c2cccs2)SC1=S (stereo unspecified) | 20 µM [falling, partial curve, poor fit] | –

Compound | AC50 [1] | AC50 [2]
Cc1ccc(NC(=S)N/N=C2\CC(C)(C)Oc3ccc(O)cc32)cc1 | – | 18.4 µM [falling, partial curve, poor fit]
CCCc1cc(=O)oc2cc(C)cc(OCC(=O)Nc3ccccn3)c12 | 2.51 µM [falling, partial curve] | –
CCN1C(=S)N[C@@H](c2cccc(C(F)(F)F)c2)C(C(=O)OC)=C1C | 20 µM [falling, single point] | –
Cc1ccc2[nH]c(C(=O)NN=C3CCCCC3)c(-c3ccccc3)c2c1 | 0.891 µM [rising, full curve, poor fit] | 2.82 µM [falling, full curve]
CCC(CC)c1nnc(NC(=O)CCCN2C(=O)c3ccccc3C2=O)s1 | 4.11 µM [rising, full curve] | –
CC1CCN(C(=O)CSc2nc3c(c(=O)n(C)c(=O)n3C)n2C)CC1 | 5.01 µM [falling, full curve] | –
CCN(CC)c1nc2c(s1)C(=O)CC(C)(C)C2 | 29.1 µM [falling, single point] | –
CCNc1nc(SC(C)C(=O)Nc2ccccc2)nc(N2CCOCC2)n1 (stereo unspecified) | 23.1 µM [rising, single point] | –
O=C(CN1CCN(S(=O)(=O)c2ccc(Cl)cc2)CC1)NCC1(N2CCOCC2)CCCCC1 | 2.06 µM [rising, partial curve, poor fit] | –
COc1ccc(S(=O)(=O)NCC(=O)Nc2ccc(F)cc2)cc1 | 4.61 µM [rising, partial curve, poor fit] | –
CC1CCN(CCCNC(=O)c2ccc(Cn3c(=S)[nH]c4ccc(Br)cc4c3=O)cc2)CC1 | 12.6 µM [falling, partial curve] | –
CCOC(=O)CNC(=O)CSc1nnc(SCC(=O)NCC(=O)OCC)s1 | 35.5 µM [rising, single point] | –
CCCC(=O)Oc1ccc2c(C)cc(=O)oc2c1 | 18.4 µM [falling, partial curve, poor fit] | –
O=C1/C(=C/c2ccc(Cl)cc2)SC(=S)N1CCC(=O)N1CCCCC1CCO (stereo unspecified) | 7.94 µM [falling, partial curve] | –
FC(F)(F)c1cnc(Nc2ccc(N3CCOCC3)cc2)c(Cl)c1 | 8.91 µM [rising, partial curve, poor fit] | –
COC(=O)c1ccc(NC(=O)NC2CCCCC2)cc1 | 29.1 µM [falling, single point] | –
Cc1nc(C(=O)N(C)C)nn1-c1cc(Cl)ccc1Cl | 20.6 µM [rising, partial curve, poor fit] | –
CCOc1ccccc1C(=O)Nc1nnc(COC)s1 | 35.5 µM [falling, single point] | 20.6 µM [falling, partial curve, poor fit]
COc1ccc2c(C(=O)CN(C)C3CCCCC3)c[nH]c2c1 | 2.91 µM [falling, partial curve] | –
COc1c(OC(C)=O)ccc(/C=C/c2ccc3cccc(OC)c3n2)c1[N+](=O)[O-] | 23.1 µM [falling, single point] | –
O=C(CCN1C(=O)/C(=C/c2ccc(F)cc2)SC1=S)NC1C=CS(=O)(=O)C1 (stereo unspecified) | 6.31 µM [falling, partial curve, poor fit] | –

Compound | AC50 [1] | AC50 [2]
O=C(N/N=C/c1ccnc2ccccc12)c1ccccc1O | 0.447 µM [falling, full curve] | –
Cc1ccc(-c2ocnc2C(=O)Nc2nc(C)cs2)cc1 | 15.8 µM [rising, single point] | –
COc1ccc(OC)c(C(=O)COC(=O)c2[nH]c(C)c(C(C)=O)c2C)c1 | 2.06 µM [rising, partial curve, poor fit] | 13 µM [falling, partial curve]
COC(=O)C1=C(C)NC2=C(C(=O)CCC2)C1c1cn(Cc2ccc(Cl)cc2Cl)nc1-c1ccccc1 (stereo unspecified) | 20 µM [falling, single point] | –
CC(=O)Nc1sc(C)c(C)c1C(=O)OCC(=O)Nc1cc(S(=O)(=O)N2CCCCC2)ccc1Cl | – | 23.1 µM [rising, partial curve, poor fit]
Cn1cccc1C(=O)NC(=O)COC(=O)CCNS(=O)(=O)c1ccc(Cl)cc1 | 0.103 µM [rising, full curve, poor fit] | –
CCN(CC(=O)Nc1c(F)cccc1F)C(=O)c1ccc2c(c1)NC(=O)C(C)S2 (stereo unspecified) | 9.2 µM [falling, partial curve, poor fit] | –
CCOC(=O)/C=c1\s/c(=C\c2ccc3c(c2)OCCO3)c(=O)n1CC(=O)NCC1CCCO1 (stereo unspecified) | 35.5 µM [rising, single point] | –
CC(C)c1ccc(-c2nnn(CCC(=O)O)n2)cc1 | 2.82 µM [falling, full curve] | –
COc1ccc2[nH]c3c(c2c1)CCNC3(C)CCc1ccc(Cl)nc1 (stereo unspecified) | 5.62 µM [rising, single point] | –
CCS(=O)(=O)N1CCN(c2cc3c(cc2[N+](=O)[O-])n(C)c(=O)n3C)CC1 | 17.8 µM [rising, partial curve, poor fit] | –
N#Cc1c(NC(=O)C(=O)NCCCN2CCOCC2)sc2c1CCC2 | 6.31 µM [rising, single point] | –
CC(=O)c1sc(NC(=O)C2COc3ccccc3O2)nc1C (stereo unspecified) | 6.51 µM [falling, partial curve] | –
CC1CCN(C(=O)COC(=O)COc2ccccc2C#N)CC1 | 6.51 µM [rising, single point] | –
NCCCC[C@H]1CNC(=S)N1CC1CCCCC1 | 12.6 µM [rising, partial curve, poor fit] | –
O=C(NNC(=O)c1ccncc1)Nc1ccc([N+](=O)[O-])cc1 | 8.91 µM [falling, partial curve] | –
COc1cc(NC(=O)C/C(C)=N/NC(=O)c2cccs2)c(OC)cc1Cl | 35.5 µM [falling, single point] | –
CCCN(Cc1cc2cc(C)ccc2[nH]c1=O)S(C)(=O)=O | 3.55 µM [rising, partial curve] | –
C[C@]12c3[nH]c4cc(-c5ccco5)ccc4c3CCN1C(=O)[C@@H](CC(=O)NCCc1ccccn1)C[C@@H]2C(=O)N1CCCCC1 | – | 14.6 µM [falling, partial curve, poor fit]
S=C(NCc1ccccc1)N1CCn2cccc2C1c1cccnc1 (stereo unspecified) | 3.55 µM [rising, full curve, poor fit] | –
O=C(O)CC(Cc1ccccc1)c1ccc2c(c1)OCO2 (stereo unspecified) | 5.62 µM [rising, single point] | –

Filtered by structure: those above containing an NH in an aromatic ring (11)
Compound | AC50 [1] | AC50 [2]
C(=N\Nc1nc2ccccc2[nH]1)/c1cccc2cccnc12 | 22.4 µM [falling, partial curve, poor fit] | –
CCCCOc1ccc(-c2n[nH]c(=S)n2Cc2ccccc2)cc1 | 17.8 µM [rising, partial curve, poor fit] | –
COc1cccc2c(C)c(C(=O)O)[nH]c12 | – | 23.1 µM [rising, partial curve, poor fit]
CCC(=O)Nc1nc2c(c(=O)[nH]1)CCCC2 | 28.2 µM [falling, single point] | –
Cc1ccc2[nH]c(C(=O)NN=C3CCCCC3)c(-c3ccccc3)c2c1 | 0.891 µM [rising, full curve, poor fit] | 2.82 µM [falling, full curve]
CC1CCN(CCCNC(=O)c2ccc(Cn3c(=S)[nH]c4ccc(Br)cc4c3=O)cc2)CC1 | 12.6 µM [falling, partial curve] | –
COc1ccc2c(C(=O)CN(C)C3CCCCC3)c[nH]c2c1 | 2.91 µM [falling, partial curve] | –
COc1ccc(OC)c(C(=O)COC(=O)c2[nH]c(C)c(C(C)=O)c2C)c1 | 2.06 µM [rising, partial curve, poor fit] | 13 µM [falling, partial curve]
COc1ccc2[nH]c3c(c2c1)CCNC3(C)CCc1ccc(Cl)nc1 (stereo unspecified) | 5.62 µM [rising, single point] | –
CCCN(Cc1cc2cc(C)ccc2[nH]c1=O)S(C)(=O)=O | 3.55 µM [rising, partial curve] | –
C[C@]12c3[nH]c4cc(-c5ccco5)ccc4c3CCN1C(=O)[C@@H](CC(=O)NCCc1ccccn1)C[C@@H]2C(=O)N1CCCCC1 | – | 14.6 µM [falling, partial curve, poor fit]
